# Results deposited as PubChem BioAssay AID1224829 (NIAID, 2016)
# Aim: 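Secondary check of hits that alter LPS-induced p65 translocation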 (follow-up of hits)
# System: mouse RAW264.7 G9 macrophage reporter cells
# Reagents: single siRNA against mouse genes, 100 nM
# Timing: 2 days of siRNA knock-down, then 40 min of LPS before fixing
# Treatment: LPS (Salmonella minnesota R595) at 10 ng/ml
# Read-out: 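High-content images after 40 min LPS exposure; GFP-p65 nucleus to surrounding ring signal ratio, normalised to plate median and non-targeting control wells, expressed as z-score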
# Direction: p65 translocation z-score and gene median z-score, per vendor: higher = more nuclear NF-kappaB p65 after LPS
# Rule for the call: 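Active means the replicate-mean z-score lies beyond plus or minus 2, in either direction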
# Calls: active = changed p65 translocation (either direction); inactive = no clear change
# The whole screen tested about 3,800 reagents; below is an unselected part. 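Calls cover raised and lowered translocation; gene median uses one vendor's three siRNAs; qiagen siRNAs acted more weakly than ambion siRNAs.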 Entries without a mark were called inactive. The numbers tell different reagents against one gene apart. Reagent sequences are not shown.
gene,reagent no.,siRNA vendor or control pool,"p65 translocation z-score, replicate mean","p65 translocation z-score, replicate 1","p65 translocation z-score, replicate 2","gene median z-score, per vendor"
Kash5,1,ambion single siRNA,-0.645,-0.274,-1.02,0.14
Kash5,2,ambion single siRNA,0.143,0.353,-0.0667,0.14
Kash5,3,ambion single siRNA,0.531,0.716,0.346,0.14
Kash5,4,qiagen single siRNA,-2.34 (active),-1.28,-3.4,-0.528
Kash5,5,qiagen single siRNA,-0.528,-0.528,,-0.528
Kash5,6,qiagen single siRNA,3.04 (active),1.03,5.05,-0.528
Or4a39,1,ambion single siRNA,0.238,1.08,-0.6,-1.29
Or4a39,2,ambion single siRNA,-2.81 (active),-1.98,-3.65,-1.29
Or4a39,3,ambion single siRNA,,,,-1.29
Or4a39,4,qiagen single siRNA,1.79,1.24,2.34,0.256
Or4a39,5,qiagen single siRNA,0.256,-0.205,0.718,0.256
Or4a39,6,qiagen single siRNA,-1.69,-2.02,-1.37,0.256
Vamp1,1,ambion single siRNA,0.384,1.33,-0.561,-1.49
Vamp1,2,ambion single siRNA,-2.8 (active),-3.1,-2.51,-1.49
Vamp1,3,ambion single siRNA,-1.49,-1,-1.98,-1.49
Vamp1,4,qiagen single siRNA,1.18,-0.794,3.16,-0.49
Vamp1,5,qiagen single siRNA,0.702,-0.726,2.13,-0.49
Vamp1,6,qiagen single siRNA,-0.992,-0.254,-1.73,-0.49
Cela2a,1,ambion single siRNA,1.12,2.44,-0.201,-0.124
Cela2a,2,ambion single siRNA,-0.569,-0.72,-0.418,-0.124
Cela2a,3,ambion single siRNA,1.14,2.33,-0.0478,-0.124
Cela2a,4,qiagen single siRNA,0.852,-0.329,2.03,0.193
Cela2a,5,qiagen single siRNA,0.79,1.39,0.193,0.193
Cela2a,6,qiagen single siRNA,-3.21 (active),-3.21,,0.193
Idh3g,1,ambion single siRNA,1.51,0.519,2.5,-3.71
Idh3g,2,ambion single siRNA,-5.66 (active),-7.01,-4.31,-3.71
Idh3g,3,ambion single siRNA,-3.9 (active),-4.68,-3.11,-3.71
Idh3g,4,qiagen single siRNA,-0.496,-1.37,0.377,-1.63
Idh3g,5,qiagen single siRNA,-2.26 (active),-1.88,-2.64,-1.63
Idh3g,6,qiagen single siRNA,-2.14 (active),-3.07,-1.22,-1.63
Vmp1,1,ambion single siRNA,-1.74,-1.64,-1.85,-1.24
Vmp1,2,ambion single siRNA,-1.35,-0.854,-1.84,-1.24
Vmp1,3,ambion single siRNA,1.09,0.0649,2.11,-1.24
Vmp1,4,qiagen single siRNA,0.867,0.33,1.4,-1.58
Vmp1,5,qiagen single siRNA,-2.5 (active),-3.71,-1.3,-1.58
Vmp1,6,qiagen single siRNA,-2.8 (active),-3.72,-1.87,-1.58
Or5w20,1,ambion single siRNA,-2.63 (active),-2.59,-2.67,-3.36
Or5w20,2,ambion single siRNA,,,,-3.36
Or5w20,3,ambion single siRNA,-4.93 (active),-4.05,-5.82,-3.36
Or5w20,4,qiagen single siRNA,-0.837,-0.245,-1.43,-1.58
Or5w20,5,qiagen single siRNA,0.0196,-1.72,1.76,-1.58
Or5w20,6,qiagen single siRNA,-2.5 (active),-2.35,-2.65,-1.58
Csf2ra,1,ambion single siRNA,-3.83 (active),-4.34,-3.32,0.18
Csf2ra,2,ambion single siRNA,0.18,1.04,-0.682,0.18
Csf2ra,3,ambion single siRNA,2.67 (active),3.28,2.06,0.18
Csf2ra,4,qiagen single siRNA,1.49,1.02,1.96,1.09
Csf2ra,5,qiagen single siRNA,-0.452,-2.06,1.16,1.09
Csf2ra,6,qiagen single siRNA,0.642,1.21,0.0779,1.09
Slc25a14,1,ambion single siRNA,-1.05,-0.75,-1.36,-1.63
Slc25a14,2,ambion single siRNA,-1.89,-2.05,-1.73,-1.63
Slc25a14,3,ambion single siRNA,-3.87 (active),-1.52,-6.22,-1.63
Slc25a14,4,qiagen single siRNA,1.16,1.71,0.613,0.649
Slc25a14,5,qiagen single siRNA,0.473,0.649,0.296,0.649
Slc25a14,6,qiagen single siRNA,2.43 (active),2.43,,0.649
Sgpl1,1,ambion single siRNA,0.236,0.38,0.0921,-0.443
Sgpl1,2,ambion single siRNA,-0.223,0.532,-0.978,-0.443
Sgpl1,3,ambion single siRNA,-1.62,-1.58,-1.66,-0.443
Sgpl1,4,qiagen single siRNA,1.38,-0.43,3.2,1.24
Sgpl1,5,qiagen single siRNA,2.42 (active),1.28,3.55,1.24
Sgpl1,6,qiagen single siRNA,-0.0583,-1.31,1.19,1.24
Fam53a,1,ambion single siRNA,0.204,-0.494,0.902,-2.32
Fam53a,2,ambion single siRNA,-4.13 (active),-4.13,,-2.32
Fam53a,3,ambion single siRNA,-2.82 (active),-2.32,-3.31,-2.32
Fam53a,4,qiagen single siRNA,2.31 (active),2.67,1.95,-1.03
Fam53a,5,qiagen single siRNA,-2.69 (active),-3.06,-2.32,-1.03
Fam53a,6,qiagen single siRNA,-1.38,-3.02,0.262,-1.03

4 entries from above, arranged by “p65 translocation z-score, replicate 1”, ascending.
gene,reagent no.,siRNA vendor or control pool,"p65 translocation z-score, replicate mean","p65 translocation z-score, replicate 1","p65 translocation z-score, replicate 2","gene median z-score, per vendor"
Csf2ra,5,qiagen single siRNA,-0.452,-2.06,1.16,1.09
Csf2ra,4,qiagen single siRNA,1.49,1.02,1.96,1.09
Csf2ra,2,ambion single siRNA,0.18,1.04,-0.682,0.18
Csf2ra,3,ambion single siRNA,2.67 (active),3.28,2.06,0.18
